Results published in BindingDB's records for doi:10.1161/01.cir.102.23.2836 (Nih, 2000).

By UniProt entry, the sequences of proteins in these tests, tags left out.
UniProt P41595, whole entry: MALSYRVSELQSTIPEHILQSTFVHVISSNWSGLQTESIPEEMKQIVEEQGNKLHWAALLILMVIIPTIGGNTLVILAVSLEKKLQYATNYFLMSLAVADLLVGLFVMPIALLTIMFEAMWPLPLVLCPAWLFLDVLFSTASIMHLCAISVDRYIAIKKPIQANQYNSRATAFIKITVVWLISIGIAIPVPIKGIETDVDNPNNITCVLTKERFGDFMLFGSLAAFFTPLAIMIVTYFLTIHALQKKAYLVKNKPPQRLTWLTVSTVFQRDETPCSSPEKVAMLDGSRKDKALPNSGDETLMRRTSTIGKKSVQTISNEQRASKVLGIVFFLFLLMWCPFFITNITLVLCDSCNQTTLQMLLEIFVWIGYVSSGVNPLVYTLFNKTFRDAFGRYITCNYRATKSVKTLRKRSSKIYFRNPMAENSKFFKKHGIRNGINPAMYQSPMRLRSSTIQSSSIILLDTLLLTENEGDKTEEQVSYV

Biological target: 5-hydroxytryptamine receptor 2B (Homo sapiens, UniProt P41595)

SMILES: CC[C@@H](CO)NC(=O)[C@@H]1C=C2c3cccc4c3c(cn4C)C[C@H]2N(C)C1
- Ki: 9.1 nM
